Our source for the binding values is publication doi:10.1101/2020.04.10.036707.

By UniProt entry, the sequences of proteins in these tests, tags left out.
UniProt Q9P7T4: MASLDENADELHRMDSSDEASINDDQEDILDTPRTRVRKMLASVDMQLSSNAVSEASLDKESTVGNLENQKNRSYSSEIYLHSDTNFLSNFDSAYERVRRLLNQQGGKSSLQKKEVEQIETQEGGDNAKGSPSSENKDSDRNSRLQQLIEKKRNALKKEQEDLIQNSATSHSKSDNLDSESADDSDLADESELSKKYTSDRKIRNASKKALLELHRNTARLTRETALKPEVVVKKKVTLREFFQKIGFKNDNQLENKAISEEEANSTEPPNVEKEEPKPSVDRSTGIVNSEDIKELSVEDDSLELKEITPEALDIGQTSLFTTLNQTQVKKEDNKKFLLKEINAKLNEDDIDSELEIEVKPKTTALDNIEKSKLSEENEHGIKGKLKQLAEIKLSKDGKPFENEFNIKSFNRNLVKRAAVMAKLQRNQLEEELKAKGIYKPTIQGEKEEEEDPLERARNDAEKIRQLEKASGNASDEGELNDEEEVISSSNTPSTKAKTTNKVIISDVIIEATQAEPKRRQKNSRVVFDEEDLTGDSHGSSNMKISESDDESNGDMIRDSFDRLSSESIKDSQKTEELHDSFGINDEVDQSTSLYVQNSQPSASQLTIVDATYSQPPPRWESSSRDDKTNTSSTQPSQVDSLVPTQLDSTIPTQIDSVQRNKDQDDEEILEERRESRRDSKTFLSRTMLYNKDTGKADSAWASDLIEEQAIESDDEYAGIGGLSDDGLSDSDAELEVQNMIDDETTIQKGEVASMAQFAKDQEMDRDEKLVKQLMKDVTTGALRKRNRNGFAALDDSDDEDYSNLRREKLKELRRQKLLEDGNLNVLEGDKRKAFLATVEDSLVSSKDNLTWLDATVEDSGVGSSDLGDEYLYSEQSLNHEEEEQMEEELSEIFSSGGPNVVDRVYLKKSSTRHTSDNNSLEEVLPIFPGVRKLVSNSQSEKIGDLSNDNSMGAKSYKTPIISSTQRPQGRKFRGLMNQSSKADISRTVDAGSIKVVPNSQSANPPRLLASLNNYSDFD

Assay in all cases: co-IP
For assay [1], the target named is T1, Rqh1 (RecQ DNA helicase), myc tagged (S. pombe) (UniProt Q09811).
T1 sequence: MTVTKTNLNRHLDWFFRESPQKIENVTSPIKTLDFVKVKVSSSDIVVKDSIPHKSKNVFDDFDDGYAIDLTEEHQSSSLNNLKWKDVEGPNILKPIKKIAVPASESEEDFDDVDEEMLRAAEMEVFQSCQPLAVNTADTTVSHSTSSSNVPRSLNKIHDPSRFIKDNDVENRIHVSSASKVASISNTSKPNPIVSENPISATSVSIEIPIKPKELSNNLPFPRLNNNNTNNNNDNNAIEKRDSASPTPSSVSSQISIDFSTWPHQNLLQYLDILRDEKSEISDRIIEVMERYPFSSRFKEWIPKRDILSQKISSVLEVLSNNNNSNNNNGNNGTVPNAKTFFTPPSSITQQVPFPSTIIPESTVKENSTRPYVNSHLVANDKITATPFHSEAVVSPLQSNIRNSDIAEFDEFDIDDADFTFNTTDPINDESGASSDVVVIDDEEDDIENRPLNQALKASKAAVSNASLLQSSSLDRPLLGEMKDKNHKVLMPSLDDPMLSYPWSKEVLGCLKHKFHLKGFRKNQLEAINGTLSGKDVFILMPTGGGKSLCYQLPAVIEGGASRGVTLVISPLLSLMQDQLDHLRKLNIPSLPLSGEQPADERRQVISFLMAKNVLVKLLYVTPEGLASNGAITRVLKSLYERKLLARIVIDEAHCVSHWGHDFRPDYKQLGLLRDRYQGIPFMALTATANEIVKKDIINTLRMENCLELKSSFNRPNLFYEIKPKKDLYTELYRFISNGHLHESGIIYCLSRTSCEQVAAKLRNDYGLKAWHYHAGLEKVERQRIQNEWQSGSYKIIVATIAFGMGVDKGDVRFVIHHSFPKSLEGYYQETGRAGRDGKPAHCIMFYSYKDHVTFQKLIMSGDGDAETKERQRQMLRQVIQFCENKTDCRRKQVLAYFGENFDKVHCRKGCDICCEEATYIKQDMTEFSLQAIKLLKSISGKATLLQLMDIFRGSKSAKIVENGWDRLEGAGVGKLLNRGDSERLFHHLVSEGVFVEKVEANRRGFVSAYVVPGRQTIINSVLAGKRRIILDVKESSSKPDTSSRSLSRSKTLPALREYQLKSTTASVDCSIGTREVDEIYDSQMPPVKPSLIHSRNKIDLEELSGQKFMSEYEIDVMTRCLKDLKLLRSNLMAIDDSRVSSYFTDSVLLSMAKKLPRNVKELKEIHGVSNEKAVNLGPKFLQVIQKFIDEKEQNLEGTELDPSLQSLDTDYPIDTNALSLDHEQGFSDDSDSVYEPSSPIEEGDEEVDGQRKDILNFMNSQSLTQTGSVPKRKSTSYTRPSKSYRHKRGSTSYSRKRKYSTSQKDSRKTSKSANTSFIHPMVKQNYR

In assay [2] the target is T2, Rpa1, HA tagged (S. pombe) (UniProt Q92372).
T2 sequence: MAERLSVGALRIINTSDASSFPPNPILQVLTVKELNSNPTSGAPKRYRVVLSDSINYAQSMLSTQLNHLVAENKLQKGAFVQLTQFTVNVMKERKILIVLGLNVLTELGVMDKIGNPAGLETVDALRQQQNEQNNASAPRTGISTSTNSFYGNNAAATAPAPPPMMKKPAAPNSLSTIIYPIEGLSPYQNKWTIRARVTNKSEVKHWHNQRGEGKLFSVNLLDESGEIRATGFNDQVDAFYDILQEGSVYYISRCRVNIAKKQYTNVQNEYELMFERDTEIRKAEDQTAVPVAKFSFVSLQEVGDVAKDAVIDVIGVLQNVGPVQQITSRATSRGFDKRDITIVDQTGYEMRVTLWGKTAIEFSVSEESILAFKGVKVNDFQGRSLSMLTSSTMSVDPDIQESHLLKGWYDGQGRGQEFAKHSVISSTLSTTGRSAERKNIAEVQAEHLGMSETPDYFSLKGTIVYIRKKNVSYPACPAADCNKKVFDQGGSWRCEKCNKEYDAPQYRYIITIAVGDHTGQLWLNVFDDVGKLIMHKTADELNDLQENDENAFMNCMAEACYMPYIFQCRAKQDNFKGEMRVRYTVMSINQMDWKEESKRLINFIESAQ

For assay [3], the target named is Mrc1, HA tagged (S. pombe) (UniProt Q9P7T4).

Results are given in words; binding and its absence hold for the method and conditions named. Binding seen in cells or lysates may run through a third protein. Some entries that bind do so weakly or less than the wild type. Tags and fused reporters may be left off the sequences shown.

For “Mrc1, HA tagged (from UniProt Q9P7T4 1-1019)”, the binding entry in assay [1] is given as “binds”.

B1: Cds1 (enzyme, UniProt Q09170 1-460)
chain: MEEPEEATQATQEAPLHVSQNIAKQVVNNENVFMKLVMTRMLDGKTEVIPLTTDVHNGFWRFGRHKSCEVVLNGPRVSNFHFEIYQGHRNDSDESENVVFLHDHSSNGTFLNFERLAKNSRTILSNGDEIRIGLGVPKDEISFLCQVPVKHSRDSQKNMIKSENSHYEIIRTLGSGTFAVVKLAVEVNSGKWYAIKIINKRKILLTSSEKRATEMFQREIDILKSLHHPGVVQCHEIFENDDELFIVMEYVEGGDLMDFLIANGSIDEQDCKPLLKQLLETLLHLHKQGVTHRDIKPENILITNDFHLKISDFGLAKVIHGTGTFLETFCGTMGYLAPEVLKSKNVNLDGGYDDKVDIWSLGCVLYVMLTASIPFASSSQAKCIELISKGAYPIEPLLENEISEEGIDLINRMLEINPEKRISESEALQHPWFYTVSTHEHRTPPSSSEHEATEQLNSSS
For B1, the binding result in assay [1] is “no binding”.

B2: Rpa1, HA tagged (protein, UniProt Q92372 1-609)
chain: T2 sequence
For the molecule B2, the binding result in assay [1] is recorded as “binds”.

B3: Rqh1 (RecQ DNA helicase), myc tagged (enzyme, UniProt Q09811 1-1328)
chain: T1 sequence
In the case of B3, the binding result in assay [2] and in assay [3] was “binds” in each case.
